The values below come from publication PMC12516185.

Results are given in words; binding and its absence hold for the method and conditions named. Some binding calls cover weakened binding; strength is not graded here. Where a sequence is shown, tags or fusion partners need not be part of it.

Test [1] addresses Zea mays pullulanase1 (ZPU1), from residue 80, GAL4 fusion (maize (Zea mays L.)) (UniProt O81638). The test is described as follows: two-hybrid; Matchmaker Gold yeast two-hybrid; GAL4-AD fusions (pGADT7, strain Y187) mated with GAL4-BD fusions (pGBKT7, strain Y2HGold); diploids plated on relaxed (-Leu, -Trp, -His) and stringent (-Leu, -Trp, -His, -Ade, +AbA) plates; grown 2 d at 30 C.

Test [2] deals with maize isoamylase1 (ISA1), mature protein from residue 50, GAL4 fusion (maize (Zea mays L.)) (UniProt O22637). The test is described as above.

B1: Zea mays pullulanase1 (ZPU1), from residue 80, GAL4 fusion (enzyme, UniProt O81638 80-962)
chain: AQGFLLDARAYWVTKSLIAWNISDQKTSLFLYASRNATMCMSSQDMKGYDSKVELQPENDGLPSSVTQKFPFISSYRAFRIPSSVDVATLVKCQLAVASFDAHGNRQDVTGLQLPGVLDDMFAYTGPLGTIFSEEAVSMYLWAPTAQDVSVSFYDGPAGPLLETVQLNELNGVWSVTGPRNWENRYYLYEVTVYHQTTGNIEKCLAADPYARGLSANSTRTWLVDINNETLKPLAWDGLAAEKPRLDSFSDISIYELHIRDFSAHDSTVDCPFRGGFCAFTFQDSVGIEHLKKLSDAGLTHVHLLPSFQFGGVDDIKSNWKCVDEIELSKLPPGSDLQQAAIVAIQEEDPYNWGYNPVVWGVPKGSYASNPDGPSRIIEYRLMVQALNRLGLRVVMDVVYNHLYSSGPFAITSVLDKIVPGYYLRRDSNGQTENSAAVNNTASEHFMVDRLIVDDLLNWAVNYKVDGFRFDLMGHIMKKTMIRAKSALQSLTIDEHGVDGSKIYLYGEGWNFGEVAENQRGINGSQLNMSGTGIGSFNDRIRDAINGGSPFGNPLQQGFSTGLFLEPNGFYQGNETETRLTLATYADHIQIGLAGNLKDYVVISHTGEARKGSEIRTFDGSPVGYASSPIETINYASAHDNETLFDIISLKTPMDLSIDERCRINHLSTSMIALSQGIPFFHAGDEILRSKSLDRDSYDSGDWFNKIDFTYETNNWGVGLPPREKNEGSWPLMKPRLENPSFKPAKHDIIAALDKFIDILKIRYSSPLFRLTTASDIVQRVHFHNTGPSLVPGVIVMSIEDARNDRHDMAQIDETFSCVVTVFNVCPYEVSIEIPDLASLRLQLHPVQVNSSDALARQSAYDTATGRFTVPKRTAAVFVEPRC
In the case of B1, the binding entry in test [1] was “no binding”.

B2: maize isoamylase1 (ISA1), mature protein from residue 50, GAL4 fusion (enzyme, UniProt O22637 50-789)
chain: VAEAVQAEEDDDDDDEEVAEERFALGGACRVLAGMPAPLGATALRGGVNFAVYSSGASAASLCLFAPGDLKADRVTEEVPLDPLLNRTGNVWHVFIHGDQLHGMLYGYRFDGVFAPERGQYYDVSNVVVDPYAKAVVSRGEYGVPAPGGSCWPQMAGMIPLPYNKFDWQGDLPLGYHQKDLVIYEMHLRGFTKHNSSKTKHPGTYIGAVSKLDHLKELGVNCIELMPCHEFNELEYFSSSSKMNFWGYSTINFFSPMARYSSSGIRDSGCGAINEFKAFVREAHKRGIEVIMDVVFNHTAEGNEKGPILSFRGIDNSTYYMLAPKGEFYNYSGCGNTFNCNHPVVREFIVDCLRYWVTEMHVDGFRFDLASILTRGCSLWDPVNVYGSPMEGDMITTGTPLVAPPLIDMISNDPILGNVKLIAEAWDAGGLYQVGQFPHWNVWSEWNGKYRDTVRQFIKGTDGFAGAFAECLCGSPQLYQAGGRKPWHSINFVCAHDGFTLADLVTYNSKYNLSNGEDNRDGENHNLSWNCGEEGEFASLSVRRLRKRQMRNFFVCLMVSQGVPMFYMGDEYGHTKGGNNNTYCHDHYVNYFRWDKKEEQSSDLYRFCRLMTKFRKECESLGLEDFPTSERLKWHGHQPGKPDWSEASRFVAFTMKDETKGEIYVAFNTSHLPVVVGLPERSGFRWEPVVDTGKEAPYDFLTDGLPDRAVTVYQFSHFLNSNLYPMLSYSSIILVLRPDV
Turning to B2, the binding result in test [2] was “binds”.
